Data from PMC12406384.
No constants are given. Whether binding was seen depends on the method and setting. In cells and extracts the contact can be indirect. Some results given as binding are weak or reduced against the parent protein; the word gives no strength.

Chains of the proteins cited; added tags and fusions are not shown.
UniProt P19091: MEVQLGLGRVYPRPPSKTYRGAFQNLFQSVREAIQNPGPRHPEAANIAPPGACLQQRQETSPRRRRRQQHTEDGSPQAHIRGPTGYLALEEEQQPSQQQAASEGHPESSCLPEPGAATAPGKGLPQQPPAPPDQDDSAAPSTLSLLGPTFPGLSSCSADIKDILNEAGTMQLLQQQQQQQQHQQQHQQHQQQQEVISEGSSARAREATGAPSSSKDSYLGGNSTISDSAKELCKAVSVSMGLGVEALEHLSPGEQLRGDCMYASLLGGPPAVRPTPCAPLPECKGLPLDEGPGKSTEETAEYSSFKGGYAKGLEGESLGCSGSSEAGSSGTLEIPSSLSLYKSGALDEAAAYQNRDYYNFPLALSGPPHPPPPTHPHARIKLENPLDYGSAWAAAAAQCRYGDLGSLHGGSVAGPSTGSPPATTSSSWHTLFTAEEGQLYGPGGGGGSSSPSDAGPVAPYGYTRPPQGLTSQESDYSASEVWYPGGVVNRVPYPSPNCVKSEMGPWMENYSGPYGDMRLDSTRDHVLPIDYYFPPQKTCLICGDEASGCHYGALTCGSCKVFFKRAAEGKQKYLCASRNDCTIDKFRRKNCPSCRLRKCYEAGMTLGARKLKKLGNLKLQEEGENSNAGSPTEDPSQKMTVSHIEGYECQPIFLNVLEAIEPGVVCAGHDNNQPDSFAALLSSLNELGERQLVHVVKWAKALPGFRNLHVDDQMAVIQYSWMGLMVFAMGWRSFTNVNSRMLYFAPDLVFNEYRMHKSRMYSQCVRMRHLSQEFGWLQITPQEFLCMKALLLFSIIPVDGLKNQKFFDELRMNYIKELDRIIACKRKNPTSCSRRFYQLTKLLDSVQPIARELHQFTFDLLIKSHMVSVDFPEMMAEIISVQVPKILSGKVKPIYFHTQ

T1: Forkhead box protein L2 (mouse (endogenous in MPGCs)) (UniProt O88470)
T1 sequence: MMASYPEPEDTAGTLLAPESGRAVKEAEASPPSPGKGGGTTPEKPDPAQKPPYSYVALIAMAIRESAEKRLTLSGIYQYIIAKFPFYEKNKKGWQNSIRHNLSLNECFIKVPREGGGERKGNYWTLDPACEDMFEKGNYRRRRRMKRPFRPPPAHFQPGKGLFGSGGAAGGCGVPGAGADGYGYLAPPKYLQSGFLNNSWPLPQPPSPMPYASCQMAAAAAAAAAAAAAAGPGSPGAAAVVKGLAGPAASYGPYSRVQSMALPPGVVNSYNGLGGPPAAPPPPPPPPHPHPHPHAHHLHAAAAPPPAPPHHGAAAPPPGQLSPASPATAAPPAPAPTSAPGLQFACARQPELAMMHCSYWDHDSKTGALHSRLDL


What was measured:
[1] = target: T1, Forkhead box protein L2 (mouse (endogenous in MPGCs)); experiment: co-IP; endogenous proteins in MPGC lysate (500 µg/500 µl) with magnetic beads and anti-AR, anti-FOXL2 or rabbit IgG overnight at 4 °C; beads washed with PBS; Western blotting; cells treated with vehicle (ethanol) or DHT
[2] = target: androgen receptor (mouse (endogenous in MPGCs)) (UniProt P19091); experiment: as above

Row | binding [1] | binding [2] | Molecule
1 | binds | – | androgen receptor (from UniProt P19091 1-899)
2 | – | binds | Forkhead box protein L2 (protein, UniProt O88470 1-375) MMASYPEPEDTAGTLLAPESGRAVKEAEASPPSPGKGGGTTPEKPDPAQKPPYSYVALIAMAIRESAEKRLTLSGIYQYIIAKFPFYEKNKKGWQNSIRHNLSLNECFIKVPREGGGERKGNYWTLDPACEDMFEKGNYRRRRRMKRPFRPPPAHFQPGKGLFGSGGAAGGCGVPGAGADGYGYLAPPKYLQSGFLNNSWPLPQPPSPMPYASCQMAAAAAAAAAAAAAAGPGSPGAAAVVKGLAGPAASYGPYSRVQSMALPPGVVNSYNGLGGPPAAPPPPPPPPHPHPHPHAHHLHAAAAPPPAPPHHGAAAPPPGQLSPASPATAAPPAPAPTSAPGLQFACARQPELAMMHCSYWDHDSKTGALHSRLDL
